Experimental data as given in the supplement of paper PMC8728848.
The other results are listed elsewhere or left out.

Assays:
Experiment in all cases: glycan array binding signal (z-score within array); higher = stronger binding
Details in all cases: glycan notation: IUPAC condensed, linker removed
[1] = biological target: Fuc(a1-2)Gal(b1-4)GlcNAc(b1-3)Gal(b1-4)GlcNAc(b1-2)Man(a1-3)[Fuc(a1-2)Gal(b1-4)GlcNAc(b1-3)Gal(b1-4)GlcNAc(b1-2)Man(a1-6)]Man(b1-4)GlcNAc(b1-4)GlcNAc
Procedure, shortened: (§1)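 Columns mapping to the same glycan were averaged after glycan names were converted to IUPAC-condensed notation. The data come from 3228 arrays in the Consortium for Functional Glycomics database, limited to those with an available protein sequence. Binding is reported as a within-array Z-score averaged across arrays of one protein sequence and across linkers.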

[2] = biological target: Fuc(a1-2)Gal(b1-4)GlcNAc(b1-3)Gal(b1-4)GlcNAc(b1-3)Gal(b1-4)GlcNAc
Procedure, shortened: as §1

[3] = biological target: Fuc(a1-2)Gal(b1-4)GlcNAc(b1-3)GalNAc
Procedure, shortened: as §1

[4] = biological target: Fuc(a1-2)Gal(b1-4)GlcNAc(b1-3)[Fuc(a1-2)Gal(b1-4)GlcNAc(b1-6)]GalNAc
Procedure, shortened: as §1

[5] = biological target: Fuc(a1-2)Gal(b1-4)GlcNAc(b1-3)[Fuc(a1-3)[Gal(b1-4)]GlcNAc(b1-6)]Gal(b1-4)Glc
Procedure, shortened: as §1

[6] = biological target: Fuc(a1-2)Gal(b1-4)GlcNAc(b1-6)GalNAc
Procedure, shortened: as §1

[7] = biological target: Fuc(a1-2)Gal(b1-4)GlcNAc6S
Procedure, shortened: as §1

[8] = biological target: Fuc(a1-2)Gal(b1-4)[Fuc(a1-3)]GlcNAc
Procedure, shortened: as §1

[9] = biological target: Fuc(a1-2)Gal(b1-4)[Fuc(a1-3)]GlcNAc(b1-2)Man(a1-3)[Fuc(a1-2)Gal(b1-4)[Fuc(a1-3)]GlcNAc(b1-2)Man(a1-6)]Man(b1-4)GlcNAc(b1-4)[Fuc(a1-6)]GlcNAc
Procedure, shortened: as §1

[10] = biological target: Fuc(a1-2)Gal(b1-4)[Fuc(a1-3)]GlcNAc(b1-2)[Fuc(a1-2)Gal(b1-4)[Fuc(a1-3)]GlcNAc(b1-4)]Man(a1-3)[Fuc(a1-2)Gal(b1-4)[Fuc(a1-3)]GlcNAc(b1-2)Man(a1-6)]Man(b1-4)GlcNAc(b1-4)GlcNAc
Procedure, shortened: as §1

[11] = biological target: Fuc(a1-2)Gal(b1-4)[Fuc(a1-3)]GlcNAc(b1-3)Gal(b1-4)[Fuc(a1-3)]GlcNAc
Procedure, shortened: as §1

[12] = biological target: Fuc(a1-2)Gal(b1-4)[Fuc(a1-3)]GlcNAc(b1-3)Gal(b1-4)[Fuc(a1-3)]GlcNAc(b1-3)Gal(b1-4)[Fuc(a1-3)]GlcNAc
Procedure, shortened: as §1

[13] = biological target: Fuc(a1-2)Gal(b1-4)[Fuc(a1-3)]GlcNAc(b1-3)GalNAc
Procedure, shortened: as §1

[14] = biological target: Fuc(a1-2)Gal(b1-4)[Fuc(a1-3)]GlcNAc(b1-3)[Neu5Ac(a2-6)Gal(b1-4)GlcNAc(b1-6)]Gal(b1-4)Glc
Procedure, shortened: as §1

[15] = biological target: Fuc(a1-2)Gal3S(b1-4)GlcNAc
Procedure, shortened: as §1

[16] = biological target: Fuc(a1-2)Gal6S(b1-3)GlcNAc
Procedure, shortened: as §1

[17] = biological target: Fuc(a1-2)Gal6S(b1-3)GlcNAc6S
Procedure, shortened: as §1

Fuc(a1-2)Gal6S(b1-4)Glc = biological target: Fuc(a1-2)Gal6S(b1-4)Glc
Procedure, shortened: as §1

[18] = biological target: Fuc(a1-2)Gal6S(b1-4)Glc6S
Procedure, shortened: as §1

Fuc(a1-2)[Gal(a1-3)]Gal = biological target: Fuc(a1-2)[Gal(a1-3)]Gal
Procedure, shortened: as §1

[19] = biological target: Fuc(a1-2)[Gal(a1-3)]Gal(b1-3)GalNAc
Procedure, shortened: as §1

[20] = biological target: Fuc(a1-2)[Gal(a1-3)]Gal(b1-3)GalNAc(b1-3)Gal(a1-4)Gal(b1-4)Glc
Procedure, shortened: as §1

[21] = biological target: Fuc(a1-2)[Gal(a1-3)]Gal(b1-3)GlcNAc
Procedure, shortened: as §1

[22] = biological target: Fuc(a1-2)[Gal(a1-3)]Gal(b1-3)GlcNAc(b1-2)Man(a1-3)[Fuc(a1-2)[Gal(a1-3)]Gal(b1-3)GlcNAc(b1-2)Man(a1-6)]Man(b1-4)GlcNAc(b1-4)GlcNAc
Procedure, shortened: as §1

[23] = biological target: Fuc(a1-2)[Gal(a1-3)]Gal(b1-3)GlcNAc(b1-2)Man(a1-3)[Fuc(a1-2)[Gal(a1-3)]Gal(b1-3)GlcNAc(b1-2)Man(a1-6)]Man(b1-4)GlcNAc(b1-4)[Fuc(a1-6)]GlcNAc
Procedure, shortened: as §1

[24] = biological target: Fuc(a1-2)[Gal(a1-3)]Gal(b1-3)GlcNAc(b1-3)GalNAc
Procedure, shortened: as §1

[25] = biological target: Fuc(a1-2)[Gal(a1-3)]Gal(b1-3)GlcNAc(b1-6)GalNAc
Procedure, shortened: as §1

[26] = biological target: Fuc(a1-2)[Gal(a1-3)]Gal(b1-4)Glc
Procedure, shortened: as §1

[27] = biological target: Fuc(a1-2)[Gal(a1-3)]Gal(b1-4)GlcNAc
Procedure, shortened: as §1

[28] = biological target: Fuc(a1-2)[Gal(a1-3)]Gal(b1-4)GlcNAc(b1-2)Man
Procedure, shortened: as §1

[29] = biological target: Fuc(a1-2)[Gal(a1-3)]Gal(b1-4)GlcNAc(b1-2)Man(a1-3)[Fuc(a1-2)[Gal(a1-3)]Gal(b1-4)GlcNAc(b1-2)Man(a1-6)]Man(b1-4)GlcNAc(b1-4)GlcNAc
Procedure, shortened: as §1

[30] = biological target: Fuc(a1-2)[Gal(a1-3)]Gal(b1-4)GlcNAc(b1-2)Man(a1-3)[Fuc(a1-2)[Gal(a1-3)]Gal(b1-4)GlcNAc(b1-2)Man(a1-6)]Man(b1-4)GlcNAc(b1-4)[Fuc(a1-6)]GlcNAc
Procedure, shortened: as §1

[31] = biological target: Fuc(a1-2)[Gal(a1-3)]Gal(b1-4)GlcNAc(b1-3)GalNAc
Procedure, shortened: as §1

[32] = biological target: Fuc(a1-2)[Gal(a1-3)]Gal(b1-4)GlcNAc(b1-3)[Fuc(a1-2)[Gal(a1-3)]Gal(b1-4)GlcNAc(b1-6)]GalNAc
Procedure, shortened: as §1

[33] = biological target: Fuc(a1-2)[Gal(a1-3)]Gal(b1-4)GlcNAc(b1-6)GalNAc
Procedure, shortened: as §1

[34] = biological target: Fuc(a1-2)[Gal(a1-3)]Gal(b1-4)[Fuc(a1-3)]Glc
Procedure, shortened: as §1

[35] = biological target: Fuc(a1-2)[Gal(a1-3)]Gal(b1-4)[Fuc(a1-3)]GlcNAc
Procedure, shortened: as §1

[36] = biological target: Fuc(a1-2)[Gal(a1-3)]Gal(b1-4)[Fuc(a1-3)]GlcNAc(b1-3)GalNAc
Procedure, shortened: as §1

[37] = biological target: Fuc(a1-2)[Gal(a1-4)]Gal(b1-4)GlcNAc
Procedure, shortened: as §1

[38] = biological target: Fuc(a1-2)[GalNAc(a1-3)]Gal
Procedure, shortened: as §1

[39] = biological target: Fuc(a1-2)[GalNAc(a1-3)]Gal(b1-3)GalNAc(a1-3)[Fuc(a1-2)]Gal(b1-4)GlcNAc
Procedure, shortened: as §1

[40] = biological target: Fuc(a1-2)[GalNAc(a1-3)]Gal(b1-3)GalNAc(b1-3)Gal(a1-4)Gal(b1-4)Glc
Procedure, shortened: as §1

[41] = biological target: Fuc(a1-2)[GalNAc(a1-3)]Gal(b1-3)GlcNAc
Procedure, shortened: as §1

[42] = biological target: Fuc(a1-2)[GalNAc(a1-3)]Gal(b1-3)GlcNAc(b1-2)Man(a1-3)[Fuc(a1-2)[GalNAc(a1-3)]Gal(b1-3)GlcNAc(b1-2)Man(a1-6)]Man(b1-4)GlcNAc(b1-4)GlcNAc
Procedure, shortened: as §1

[43] = biological target: Fuc(a1-2)[GalNAc(a1-3)]Gal(b1-3)GlcNAc(b1-2)Man(a1-3)[Fuc(a1-2)[GalNAc(a1-3)]Gal(b1-3)GlcNAc(b1-2)Man(a1-6)]Man(b1-4)GlcNAc(b1-4)[Fuc(a1-6)]GlcNAc
Procedure, shortened: as §1

B1: AT5G24760(45) (Arabidopsis thaliana), Q8LEB2 (protein)
chain: MSASSSSFEQPQVITCNAAVAWRAGEPLVMEEVEVSPPQPLEIRIKVVCTSLCRSDLSAWESQSLLPRIFGHEAAGIVESIGEGVTEFEKGDHVLAVFTGECGSCRHCISGKSNMCQVLGMERKGLMHSDQKTRFSIKGKPVYHYCAVSSFSEYTVVHSGCAVKVDPLAPLHKICLLSCGVAAGLGAAWNVADVQKGSSVVIFGLGTVGLSVAQGAKLRGAAQILGVDINPAKAEQAKTFGVTDFINSNDLSEPIPQVIKRMTGGGADFSFECVGDTGIATTALQSCSDGWGMTVTLGVPKAKPEVSAHYGLFLSGKSLKGTLFGGWKPKSDLPSLIDKYMNKEIMIDEFITHNLSFDEINKAFVLMREGKCLRCVLHMPK
Question: For B1, which “glycan array binding signal (z-score)” value [1] is on record?
Answer: -1.37

Question: And the “glycan array binding signal (z-score)” value [2]?
Answer: -0.964

Question: What about the “glycan array binding signal (z-score)” value [3] of the same binder?
Answer: -0.198

Question: And the “glycan array binding signal (z-score)” value [4]?
Answer: -0.213

Question: And the “glycan array binding signal (z-score)” value [5]?
Answer: 0.166

Question: What about the “glycan array binding signal (z-score)” value [6] of the same binder?
Answer: -0.75

Question: And the “glycan array binding signal (z-score)” value [7]?
Answer: -0.406

Question: What about the “glycan array binding signal (z-score)” value [8] of the same binder?
Answer: 0.888

Question: And the “glycan array binding signal (z-score)” value [9]?
Answer: 0.395

Question: What about the “glycan array binding signal (z-score)” value [10] of the same binder?
Answer: 0.707

Question: What about the “glycan array binding signal (z-score)” value [11] of the same binder?
Answer: -0.531

Question: And the “glycan array binding signal (z-score)” value [12]?
Answer: -0.33

Question: What about the “glycan array binding signal (z-score)” value [13] of the same binder?
Answer: 4.6

Question: And the “glycan array binding signal (z-score)” value [14]?
Answer: -0.581

Question: What about the “glycan array binding signal (z-score)” value [15] of the same binder?
Answer: -0.65

Question: What about the “glycan array binding signal (z-score)” value [16] of the same binder?
Answer: -0.529

Question: What about the “glycan array binding signal (z-score)” value [17] of the same binder?
Answer: 0.231

Question: What about the “glycan array binding signal (z-score)” value (Fuc(a1-2)Gal6S(b1-4)Glc) of the same binder?
Answer: -0.003

Question: What about the “glycan array binding signal (z-score)” value [18] of the same binder?
Answer: -0.028

Question: And the “glycan array binding signal (z-score)” value (Fuc(a1-2)[Gal(a1-3)]Gal)?
Answer: 0.984

Question: What about the “glycan array binding signal (z-score)” value [19] of the same binder?
Answer: -0.396

Question: And the “glycan array binding signal (z-score)” value [20]?
Answer: 0.469

Question: What about the “glycan array binding signal (z-score)” value [21] of the same binder?
Answer: -0.224

Question: What about the “glycan array binding signal (z-score)” value [22] of the same binder?
Answer: -0.171

Question: And the “glycan array binding signal (z-score)” value [23]?
Answer: 0.653

Question: And the “glycan array binding signal (z-score)” value [24]?
Answer: -0.15

Question: What about the “glycan array binding signal (z-score)” value [25] of the same binder?
Answer: -0.246

Question: And the “glycan array binding signal (z-score)” value [26]?
Answer: 1.2

Question: What about the “glycan array binding signal (z-score)” value [27] of the same binder?
Answer: 1.36

Question: What about the “glycan array binding signal (z-score)” value [28] of the same binder?
Answer: -0.259

Question: And the “glycan array binding signal (z-score)” value [29]?
Answer: -0.45

Question: What about the “glycan array binding signal (z-score)” value [30] of the same binder?
Answer: 0.499

Question: What about the “glycan array binding signal (z-score)” value [31] of the same binder?
Answer: -0.859

Question: And the “glycan array binding signal (z-score)” value [32]?
Answer: 0.627

Question: What about the “glycan array binding signal (z-score)” value [33] of the same binder?
Answer: -0.417

Question: And the “glycan array binding signal (z-score)” value [34]?
Answer: -1.01

Question: What about the “glycan array binding signal (z-score)” value [35] of the same binder?
Answer: 0.873

Question: And the “glycan array binding signal (z-score)” value [36]?
Answer: 1.05

Question: And the “glycan array binding signal (z-score)” value [37]?
Answer: -0.328

Question: And the “glycan array binding signal (z-score)” value [38]?
Answer: -0.273

Question: And the “glycan array binding signal (z-score)” value [39]?
Answer: 0.048

Question: And the “glycan array binding signal (z-score)” value [40]?
Answer: -0.313

Question: And the “glycan array binding signal (z-score)” value [41]?
Answer: -0.182

Question: And the “glycan array binding signal (z-score)” value [42]?
Answer: -0.135

Question: And the “glycan array binding signal (z-score)” value [43]?
Answer: -1.04
